Measurements as given in the supplement of paper PMC7024190.
Structures can show the parent of a compound that is named as a salt. Some of the results follow. Single values are uncertain here, since repeats match poorly.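 The cells were human embryonic kidney cells carrying a Renilla luciferase gene, driven by the HSV-TK promoter, on a plasmid put in briefly by transfection. This is the first-round screen of about ten thousand compounds, looking for ones that raise reporter output.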

Tested on: HEK 293FT
Assay: log relative Renilla luciferase luminescence (reporter expression vs reference, reference not stated) (log (base not stated)); higher = higher recombinant reporter expression
Conditions: 10 µM; time after transfection 48 h

Compound	log
NC1(c2ccccc2Cl)CCCCC1=O (centres undefined) [Norketamine hydrochloride]	0.088
CCC(Oc1ccc(Cl)cc1)C(=O)OC1C[C@H]2CC[C@@H](C1)N2C (some centres undefined) [SM-21 maleate]	-0.0231
CCCN(CCC)C1Cc2cc(OC)c(OC)cc2C1	-0.00977
CCC[C@@H]1CC2=CC(=O)CC[C@]2(C)[C@H]2CC[C@@]3(C)[C@@H](CC[C@@]3(O)CCC(=O)O)[C@H]12	0.0406
NCCc1c[nH]c2ccc(O)cc12 [Serotonin]	0.0544
O=C1C2CCN(CC2)C1(CO)CO	0.185
NC(N)=Nc1ccc2[nH]c3c(c2c1)C[C@@]1(O)[C@H]2Cc4ccc(O)c5c4[C@@]1(CCN2CC1CC1)[C@H]3O5 [GNTI dihydrochloride]	-0.0464
CN1CCC(c2c[nH]c3ccc(O)cc23)CC1	0.0958
c1cc(Cc2cnc[nH]2)ccn1 [Immethridine dihydrobromide]	-0.244
Cc1[nH]c2ccc(Cl)cc2c1C1=CCNCC1	-0.00193
c1ccc(CCCCN2CCC(c3ccccc3)CC2)cc1 [4-PPBP maleate]	0.00638
O=Cc1cn(Cc2ccc(Cl)cc2)c2ccccc12 [Oncrasin 1]	0.0297
NCCc1c[nH]c2ccc(C(N)=O)cc12 [5-Carboxamidotryptamine maleate]	0.142
CCCCC1(C2CCCC2)Cc2cc(OCCCC(=O)O)c(Cl)c(Cl)c2C1=O (centres undefined)	-0.024
O=C(O)Cc1cccnc1C(=O)O [Homoquinolinic acid]	-0.0416
COC(=O)[C@@H](N)CCCNC(=N)N[N+](=O)[O-] [L-NAME hydrochloride]	0.0738
Cc1nnc2n1-c1sc(CCC(=O)N3CCOCC3)cc1C(c1ccccc1Cl)=NC2	-0.108
CN1[C@@H]2C[C@@H](OC(=O)[C@H](CO)c3ccccc3)C[C@H]1[C@@H]1O[C@@H]12 [Scopolamine hydrobromide]	-0.00758
C[C@@H](N)Cc1cnc[nH]1 [(R)-(-)- α-Methylhistamine dihydrobromide]	-8.27e-06
COc1cc2c(cc1OC)C1CC(=O)C(CC(C)C)CN1CC2 (centres undefined) [Tetrabenazine]	-0.0824
CCCN1CCC[C@@H]2Cc3n[nH]cc3C[C@H]21 [(-)-Quinpirole hydrochloride]	-0.179
C=CCN1C[C@H](C)N([C@H](c2ccc(C(=O)N(CC)CC)cc2)c2cccc(O)c2)C[C@H]1C	0.132
Cn1c2c(c3ccccc31)CCNCC2	0.0467
Cc1nc(N)sc1CCN [Amthamine dihydrobromide]	0.0756

Single values from above.
log, `C[C@@H](N)Cc1cnc[nH]1` [(R)-(-)- α-Methylhistamine dihydrobromide] is entered as -8.27e-06
log, `CCCN1CCC[C@@H]2Cc3n[nH]cc3C[C@H]21` [(-)-Quinpirole hydrochloride] is entered as -0.179
